PubChem BioAssay AID1259425 – University of Nebraska Medical Center, 2018
Shown is a random part of about 14,000 deposited reagents. The numbers tell different reagents against one gene apart. Not stated in the record: the time to read-out.

Purpose: 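Compare each knockdown with KSR1 silencing using changes in marker transcripts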 (primary screen)
System: HCT116 human colon cancer cells
Reagent: siRNA pool against human genes, 50 nM siRNA
Measured: 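mRNA of six signature genes measured together by branched-DNA assay after 50 nM siRNA pool, blank removed, divided by geometric mean of two housekeeping genes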
Reading the numbers: BNIP3L mRNA: higher = more BNIP3L transcript after knockdown; NDRG1 mRNA: higher = more NDRG1 transcript after knockdown; BNIP3 mRNA: higher = more BNIP3 transcript after knockdown; ALDOC mRNA: higher = more ALDOC transcript after knockdown; ACSL5 mRNA: higher = more ACSL5 transcript after knockdown

gene | pool no. | BNIP3L mRNA, set 1 | NDRG1 mRNA, set 1 | BNIP3 mRNA, set 1 | ALDOC mRNA, set 1 | ACSL5 mRNA, set 1
GAA | 1 | 0.0804 | 0.194 | 0.187 | 0.0191 | 0.0748
CACTIN | 1 | 0.0815 | 0.0477 | 0.31 | 0.024 | 0.149
SCAMP2 | 1 | 0.228 | 0.186 | 0.343 | 0.0233 | 0.112
TMEM163 | 1 | 0.158 | 0.411 | 0.373 | 0.0245 | 0.214
HIVEP3 | 1 | 0.26 | 0.129 | 0.391 | 0.0269 | 0.129
DRC9 | 1 | 0.427 | 0.502 | 0.409 | 0.187 | 0.678
FKBP9 | 1 | 0.103 | 0.13 | 0.27 | 0.0133 | 0.104
SIDT2 | 1 | 0.173 | 0.176 | 0.399 | 0.0138 | 0.163
UBE4B | 1 | 0.054 | 0.172 | 0.219 | 0.0113 | 0.0806
PSMA6 | 1 | 0.612 | 1.17 | 0.508 | 0.0938 | 0.548
GPN1 | 1 | 0.123 | 0.59 | 0.212 | 0.0203 | 0.434
TBC1D2B | 1 | 0.0745 | 0.0995 | 0.265 | 0.0239 | 0.301
ANKZF1 | 1 | 0.164 | 0.788 | 0.294 | 0.0187 | 0.221
KDM6B | 1 | 0.246 | 0.24 | 0.161 | 0.0312 | 0.258
NCOA6 | 1 | 0.0423 | 0.136 | 0.292 | 0.0302 | 0.145
PCBP3 | 1 | 0.155 | 0.14 | 0.345 | 0.0648 | 0.0956
NABP2 | 1 | 0.0824 | 0.199 | 0.25 | 0.0168 | 0.407

Next part (7 carried over from the part before).
gene | pool no. | BNIP3L mRNA, set 1 | NDRG1 mRNA, set 1 | BNIP3 mRNA, set 1 | ALDOC mRNA, set 1 | ACSL5 mRNA, set 1
GPN1 | 1 | 0.123 | 0.59 | 0.212 | 0.0203 | 0.434
TBC1D2B | 1 | 0.0745 | 0.0995 | 0.265 | 0.0239 | 0.301
ANKZF1 | 1 | 0.164 | 0.788 | 0.294 | 0.0187 | 0.221
KDM6B | 1 | 0.246 | 0.24 | 0.161 | 0.0312 | 0.258
NCOA6 | 1 | 0.0423 | 0.136 | 0.292 | 0.0302 | 0.145
PCBP3 | 1 | 0.155 | 0.14 | 0.345 | 0.0648 | 0.0956
NABP2 | 1 | 0.0824 | 0.199 | 0.25 | 0.0168 | 0.407
TBX21 | 1 | 0.179 | 0.0917 | 0.306 | -0.00281 | 0.348
XCL1 | 1 | 0.128 | 0.333 | 0.447 | 0.0531 | 0.302
RIPK3 | 1 | 0.148 | 0.268 | 0.337 | 0.0146 | 0.447
TENT5C | 1 | 0.136 | 0.185 | 0.338 | 0.0206 | 0.195
ASAH1 | 1 | 0.142 | 0.729 | 0.297 | 0.0195 | 0.32
MID2 | 1 | 0.0779 | 0.262 | 0.158 | 0.0137 | 0.199
BARX2 | 1 | 0.0987 | 0.19 | 0.29 | 0.0156 | 0.117
SCRG1 | 1 | 0.116 | 0.404 | 0.314 | 0.0488 | 0.204
APEX1 | 1 | 0.123 | 0.183 | 0.339 | 0.0303 | 0.239
NPR3 | 1 | 0.273 | 0.448 | 0.422 | 0.0671 | 0.167
NPR3 | 2 | 0.168 | 0.136 | 0.433 | 0.0305 | 0.139
TAX1BP1 | 1 | 0.176 | 0.245 | 0.372 | 0.00992 | 0.291
PAX4 | 1 | 0.0735 | 0.0667 | 0.242 | 0.0215 | 0.129
TRIM35 | 1 | 0.158 | 0.249 | 0.274 | 0.0169 | 0.0832
MANBAL | 1 | 0.141 | 0.299 | 0.349 | 0.0353 | 0.225
PPOX | 1 | 0.11 | 0.122 | 0.322 | 0.0066 | 0.195
IPO8 | 1 | 0.0935 | 0.349 | 0.335 | 0.0262 | 0.248
TUBB4A | 1 | 0.124 | 0.17 | 0.238 | 0.0164 | 0.194
CHGA | 1 | 0.105 | 0.199 | 0.434 | 0.00503 | 0.0798
SYF2 | 1 | 0.151 | 0.23 | 0.846 | 0.0402 | 0.0906
PSD4 | 1 | 0.0778 | 0.184 | 0.195 | 0.0283 | 0.139
PLEK | 1 | 0.128 | 0.0996 | 0.173 | 0.0216 | 0.121
POM121L1P | 1 | 0.0805 | 0.241 | 0.205 | 0.013 | 0.258
BSDC1 | 1 | 0.122 | 0.501 | 0.243 | 0.0305 | 0.269
TNS3 | 1 | 0.834 | 1.15 | 0.739 | 0.0284 | 0.0866
NTF4 | 1 | 0.079 | 0.205 | 0.231 | 0.0211 | 0.16
STT3A | 1 | 0.0599 | 0.0894 | 0.324 | 0.0187 | 0.152
SNRPA1 | 1 | 0.144 | 0.527 | 0.176 | 0.0575 | 0.0365
LMO1 | 1 | 0.115 | 0.227 | 0.279 | 0.025 | 0.262
CAPZB | 1 | 0.0926 | 0.0862 | 0.385 | 0.0195 | 0.0596
DGKI | 1 | 0.19 | 0.499 | 0.473 | 0.0207 | 0.179
KIAA0087 | 1 | 0.259 | 0.765 | 0.419 | 0.0893 | 0.41
GATA6 | 1 | 0.12 | 0.177 | 0.29 | 0.0355 | 0.182
